{"source": "PubChem BioAssay AID1671195 (Yale University, 2021)", "assay": "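Genes whose knockdown alters LDL uptake in liver cancer cells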 (primary screen)", "cell system": "human Huh7 hepatoma cells", "reagents": "siRNA pool against human genes, 18 nM", "timing": "about 2 to 2.5 days of knockdown, then 8 h LDL uptake", "treatment": "DiI-labelled LDL at 30 µg/ml for 8 h, in lipoprotein-deficient serum medium", "read-out": "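Per-cell DiI-LDL intensity by automated imaging; well means scaled to the plate median and given as a robust z-score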", "reading the numbers": "robust z-score: higher = more LDL uptake after knockdown", "call rule": "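a gene counts as active if at least two replicate z-scores exceed ±2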", "note": "The deposit covers about 22,000 reagents; this is an unselected part. Over the whole deposit, about 1,510 (6.9%) are marked active. 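Active includes knockdowns raising or lowering LDL uptake; positive z-scores mean more uptake, negative mean less.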"}
{"target":"PKHD1L1 (GeneID 93035)","PubChem SID":"SID442897551","robust z-score, replicate 1":-0.329,"robust z-score, replicate 2":-0.467,"robust z-score, replicate 3":-0.399,"Call":"inactive"}
{"target":"TMEM175 (GeneID 84286)","PubChem SID":"SID442886092","robust z-score, replicate 1":0.924,"robust z-score, replicate 2":1.77,"robust z-score, replicate 3":1.12,"Call":"inactive"}
{"target":"HNRNPA1 (GeneID 3178)","PubChem SID":"SID442891945","robust z-score, replicate 1":0.291,"robust z-score, replicate 2":0.123,"robust z-score, replicate 3":0.266,"Call":"inactive"}
{"target":"POU3F1 (GeneID 5453)","PubChem SID":"SID442888421","robust z-score, replicate 1":0.344,"robust z-score, replicate 2":0.739,"robust z-score, replicate 3":1.09,"Call":"inactive"}
{"target":"ZC3H18 (GeneID 124245)","PubChem SID":"SID442894160","robust z-score, replicate 1":-0.573,"robust z-score, replicate 2":0.28,"robust z-score, replicate 3":0.192,"Call":"inactive"}
{"target":"ZBTB7A (GeneID 51341)","PubChem SID":"SID442890209","robust z-score, replicate 1":0.59,"robust z-score, replicate 2":0.174,"robust z-score, replicate 3":0.582,"Call":"inactive"}

2 of these entries, set out differently:
{"target": "HNRNPA1 (GeneID 3178)", "PubChem SID": "SID442891945", "robust z-score, replicate 1": 0.291, "robust z-score, replicate 2": 0.123, "robust z-score, replicate 3": 0.266, "Call": "inactive"}
{"target": "POU3F1 (GeneID 5453)", "PubChem SID": "SID442888421", "robust z-score, replicate 1": 0.344, "robust z-score, replicate 2": 0.739, "robust z-score, replicate 3": 1.09, "Call": "inactive"}

The results go on:
{"target":"MYOC (GeneID 4653)","PubChem SID":"SID442902981","robust z-score, replicate 1":-1.04,"robust z-score, replicate 2":-1.2,"robust z-score, replicate 3":-1.33,"Call":"inactive"}
{"target":"TRIM27 (GeneID 5987)","PubChem SID":"SID442889228","robust z-score, replicate 1":1.01,"robust z-score, replicate 2":-0.304,"robust z-score, replicate 3":1.07,"Call":"inactive"}
{"target":"PRSS22 (GeneID 64063)","PubChem SID":"SID442901319","robust z-score, replicate 1":-1.16,"robust z-score, replicate 2":-1.28,"robust z-score, replicate 3":-0.206,"Call":"inactive"}
{"target":"LINC03043 (GeneID 154872)","PubChem SID":"SID442893356","robust z-score, replicate 1":0.495,"robust z-score, replicate 2":0.177,"robust z-score, replicate 3":-0.491,"Call":"inactive"}
{"target":"GGA1 (GeneID 26088)","PubChem SID":"SID442898300","robust z-score, replicate 1":-0.429,"robust z-score, replicate 2":-0.656,"robust z-score, replicate 3":-0.366,"Call":"inactive"}
{"target":"TTPA (GeneID 7274)","PubChem SID":"SID442900067","robust z-score, replicate 1":-0.485,"robust z-score, replicate 2":-0.912,"robust z-score, replicate 3":-0.725,"Call":"inactive"}
